PubChem BioAssay AID2685 (National Center for Advancing Translational Sciences (NCATS), 2010)
Some of the results follow. These are further read-outs of the screen, such as a control signal, another cell line or another target. No call is given for them. Compounds called inactive in the main read-out are mostly missing here. Potencies come from curve fits of mixed quality, noted in brackets.

Assay: qHTS Assay for Lipid Storage Modulators in Drosophila S3 Cells;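 on cell number change: cells counted by Cell Tracker Red CMTPX staining in the red channel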
Settings: BODIPY lipid droplet fluorescence, 18-24 h; for cell number change: measured here: cell count max response, cells fed with added oleic acid
How it was run: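 Drosophila S3 cells got compounds at several concentrations plus oleic acid (400 uM solution). Laser-scanning cytometry with 488 nm excitation read lipid droplets at 500-530 nm and cells at 575-640 nm. Percent activity was relative to 20 uM Triacsin C.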

[1] = measured here: cell number channel AC50, cells fed with added oleic acid
[2] = measured here: lipid fluorescence (Fed channel) AC50, cells fed with added oleic acid

Compound | cell number change | AC50 [1] | AC50 [2]
COC(=O)C1CCN(C(=O)c2ccccc2NC(C)=O)CC1 | -92% | 20.6 µM [falling, partial curve] | 20.6 µM [falling, partial curve]
O=C(CN1Cc2ccccc2C1=O)Nc1ccc2c(c1)OCCO2 | -3.62% | – | –
CC(=O)N1CCN(C(=O)c2c(-c3ccccc3)noc2C)CC1 | -11.8% | 0.00461 µM [falling, full curve, poor fit] | 0.00461 µM [falling, full curve, poor fit]
CCOc1ccc(N2CC(C(=O)Nc3ccc4c(c3)OCO4)CC2=O)cc1 (stereo not given) | -25.1% | – | 16.4 µM [falling, single point]
O=C(COc1ncnc2scc(-c3ccccc3)c12)NC1CCCc2ccccc21 (stereo not given) | 18.9% | – | 0.146 µM [falling, full curve, poor fit]
Cc1cc(=O)oc2cc(OCC(=O)NCCc3nc4ccccc4[nH]3)ccc12 | – | 6.51 µM [rising, single point] | 6.51 µM [rising, single point]
COc1ccc(S(=O)(=O)N(C)C)cc1NC(=O)CN1CCN(C(=O)C2CC2)CC1 | -2.72% | – | 18.4 µM [rising, single point]
Nc1sc2c(c1C(=O)NC1CCS(=O)(=O)C1)CCC2 (stereo not given) | 17.4% | 0.092 µM [falling, full curve, poor fit] | 0.13 µM [falling, full curve, poor fit]
COc1ccc(N(CCCN2C(=O)c3cccc4cccc(c34)C2=O)C(=O)c2cccs2)cc1 | 65% | 29.1 µM [rising, single point] | 16.4 µM [falling, single point]
Cc1cc(C(=O)COC(=O)c2ccc(O)cc2)c(C)n1Cc1ccco1 | 27.6% | – | 0.651 µM [rising, full curve, poor fit]
CCOc1c(Br)cc(C2NS(=O)(=O)N=C3CCCCCN32)cc1OC (stereo not given) | – | – | 0.164 µM [rising, partial curve, poor fit]
CN(C)S(=O)(=O)c1ccc(NC(=O)CN2CCC(Cc3ccccc3)CC2)cc1 | 42.4% | 20.6 µM [rising, single point] | 0.116 µM [rising, full curve, poor fit]
CC1(C)CC(=O)c2cnn(-c3nc4ccccc4[nH]3)c2C1 | -17.6% | – | –
O=C(/C=C/c1ccc(S(=O)(=O)NCc2ccco2)cc1)NCc1cccc(Cl)c1 | -50% | 2.31 µM [falling, full curve] | 10.3 µM [falling, partial curve]
Cc1ccc(/C=N/NC(=O)c2cccc([N+](=O)[O-])c2)o1 | 18.6% | – | 5.17 µM [falling, full curve, poor fit]
CCn1ncc(CN2CCCC(C(=O)Nc3cccc(-c4cc5ccccc5[nH]4)c3)C2)c1C (stereo not given) | 0.862% | – | 0.0651 µM [rising, full curve, poor fit]
CCN1CCN(C(=O)c2cc3cc([N+](=O)[O-])ccc3oc2=O)CC1 | – | 0.92 µM [rising, partial curve] | 0.651 µM [rising, full curve]
CCOc1ccccc1NC(=O)CCCN1C(=S)NC(C)(C)CC1C (stereo not given) | 8.53% | – | 8.2 µM [rising, partial curve, poor fit]
Cc1ccc(-c2csc(N3CCN(S(=O)(=O)c4ccc5c(c4)NC(=O)CO5)CC3)n2)cc1 | 26.7% | – | 1.84 µM [rising, partial curve]

Compound | cell number change | AC50 [1] | AC50 [2]
C/C(=N\NC(=O)c1cc(-c2ccccc2C)nc2ccccc12)c1cccnc1 | 3.23% | – | 2.59 µM [falling, partial curve]
O=C(CSc1nc2nn(-c3ccccc3)c(=O)c-2c2n1CCCCC2)Nc1ccc(F)cc1F | 13% | – | –
COc1cccc2[nH]c3c(N4CCN(Cc5ccc6c(c5)OCO6)CC4)ncnc3c12 | -19.8% | – | 29.1 µM [falling, single point]
CCOCCCn1c(=N)c(S(=O)(=O)c2ccccc2)cc2c(=O)n3cc(C)ccc3nc21 | – | – | 6.51 µM [rising, single point]
COCCNC(=O)Cn1cc(/C=C(\C#N)C(=O)NC2CCCC2)c2ccccc21 | -33.6% | 25.9 µM [falling, partial curve, poor fit] | –
c1ccc2c(c1)oc1c(NCC3CCCO3)ncnc12 (stereo not given) | -13.9% | – | 23.1 µM [falling, single point]
CC(=O)c1cccc(NC(=O)c2ccc3c(c2)CCN3S(=O)(=O)c2ccccc2)c1 | -32.4% | 23.1 µM [falling, partial curve, poor fit] | 20.6 µM [falling, partial curve]
COCCCNC(=O)Cn1nnc(-c2ccccc2NC(=O)c2ccccc2F)n1 | -7.98% | – | –
O=C(O)CCn1c(=S)n(CCC(=O)O)c2ccccc21 | 31.8% | – | –
CCn1cc([N+](=O)[O-])c(C(=O)Nc2c(C)nn(Cc3c(F)c(F)c(F)c(F)c3F)c2C)n1 | – | 0.259 µM [rising, partial curve, poor fit] | 14.6 µM [rising, partial curve, poor fit]
CN(C(=O)c1ccccn1)c1nnc(-c2ccccn2)s1 | -20% | – | 0.731 µM [falling, single point]
CC(=O)Nc1ccc(C(=O)OCc2ccc(F)cc2)cc1 | -23.6% | 4.61 µM [falling, full curve, poor fit] | –
O=[N+]([O-])c1ccccc1/C=C/CN1CCC(O)CC1 | 11.7% | – | 29.1 µM [rising, single point]
CCOC(=O)c1nnc(-c2cccs2)nc1Oc1ccccc1C(=O)OC | -53% | 29.1 µM [falling, single point] | 0.731 µM [falling, full curve]
Cc1ccc(NC(=O)Cc2nnc(SCC(=O)c3ccc(Br)cc3)n2C)cc1 | 69% | 16.4 µM [rising, partial curve] | 18.4 µM [rising, partial curve]
CC1CCCC(NC(=O)CCNC(=O)c2ccc(Br)cc2)C1C (stereo not given) | 16.9% | – | 6.51 µM [rising, single point]
CCOc1ccc(NS(=O)(=O)c2ccc(C(=O)N(CC)CC(=O)NCc3cccs3)cc2)cc1 | -60.9% | 11.2 µM [falling, partial curve] | 11.2 µM [falling, partial curve]
CCOC(=O)CCNC(=O)N1CCCC(N2CCN(c3ccc(OC)cc3)CC2)C1 (stereo not given) | -17.9% | – | 32.6 µM [falling, single point]
CCC(C)(C)n1nnnc1C(c1ccc(C)cc1)N1CCC(C)CC1 (stereo not given) | 1.04% | – | –

Compound | cell number change | AC50 [1] | AC50 [2]
C=CCNc1ncnc2c1cnn2-c1ccc(OC)cc1 | -16% | – | 0.517 µM [falling, full curve, poor fit]
Cn1c(SCC(=O)c2ccccc2)nnc1-c1cccc(N)c1 | 85.7% | 14.6 µM [rising, partial curve] | 14.6 µM [rising, partial curve]
O=C(COc1ccccc1F)NC12CC3CC(CC(C3)C1)C2 | -37.5% | 20.6 µM [falling, single point] | 32.6 µM [falling, partial curve, poor fit]
Cc1cc(C(=O)N/N=C/c2cc(Cl)cc([N+](=O)[O-])c2O)c2ccccc2n1 | -8.03% | – | 16.4 µM [rising, partial curve]
S=C(NCCCN1CCOCC1)Nc1ccc(Cl)cc1 | 4.23% | – | 0.291 µM [rising, partial curve, poor fit]
Nc1nc(N2C(=O)C3CC=CCC3C2=O)nn1-c1ccccc1 (stereo not given) | -45.9% | 1.46 µM [falling, full curve] | 29.1 µM [falling, single point]
CCSc1nc2sc3c(c2c(=O)n1-c1ccccc1)CCN(C(C)C)C3 | 84.5% | – | –
CCOC(=O)c1c(C)[nH]c(C)c1S(=O)(=O)NC(C)Cc1ccco1 (stereo not given) | -4.75% | 0.00517 µM [rising, full curve, poor fit] | –
Cc1ccc2cc(CCNC(=O)c3c(-c4ccccc4Cl)noc3C)c(=O)[nH]c2c1 | 23.8% | – | 6.51 µM [rising, single point]
O=C(NCc1cccnc1)c1ccc(COc2ccc3c(c2)CCC3)o1 | -80.4% | 29.1 µM [falling, single point] | 29.1 µM [falling, single point]
NC(=S)N/N=C/c1c(O)ccc2ccccc12 | – | – | 29.1 µM [rising, single point]
CCOC(=O)Cc1csc(CC(N)=O)n1 | -41.1% | – | 20.6 µM [falling, single point]
CN1CCN(c2ccc(NC(=O)N3CCc4ccccc43)cc2)CC1 | -2.07% | 4.61 µM [falling, single point] | –
COc1ccc(CC(=O)OCC(=O)Nc2cccc(C(C)=O)c2)cc1OC | 11.5% | – | –
COc1ccc(CC(=O)Nc2ccc(C(N)=O)cc2)cc1 | 30.8% | 32.6 µM [rising, single point] | 0.092 µM [rising, partial curve, poor fit]
Cc1cc(C(=O)OCC(=O)Nc2nc(-c3ccccc3)cs2)c(C)o1 | -37.1% | – | 1.03 µM [falling, single point]
O=C(Nc1ccccc1N1CCCC1)c1ccc([N+](=O)[O-])cc1Cl | – | 0.291 µM [rising, single point] | –
COCCn1c(SCC(=O)NC2CC2)nnc1-c1ccc(Cl)cc1 | 1.55% | – | 0.00517 µM [rising, full curve, poor fit]

Reprinted at random: 4 records from the list, in no set order.
Compound | cell number change | AC50 [1] | AC50 [2]
COCCCNC(=O)Cn1nnc(-c2ccccc2NC(=O)c2ccccc2F)n1 | -7.98% | – | –
Nc1sc2c(c1C(=O)NC1CCS(=O)(=O)C1)CCC2 (stereo not given) | 17.4% | 0.092 µM [falling, full curve, poor fit] | 0.13 µM [falling, full curve, poor fit]
CCn1ncc(CN2CCCC(C(=O)Nc3cccc(-c4cc5ccccc5[nH]4)c3)C2)c1C (stereo not given) | 0.862% | – | 0.0651 µM [rising, full curve, poor fit]
O=C(COc1ccccc1F)NC12CC3CC(CC(C3)C1)C2 | -37.5% | 20.6 µM [falling, single point] | 32.6 µM [falling, partial curve, poor fit]
